Data reported in patent US7759385B2, “4-substituted 1-aminocyclohexane compounds for utilization as ORL1-receptor and mu-opiate receptor ligands” (priority 2002, dated 2010).

Amino acid sequences for entries named in this document (tags omitted).
UniProt P41146, whole entry: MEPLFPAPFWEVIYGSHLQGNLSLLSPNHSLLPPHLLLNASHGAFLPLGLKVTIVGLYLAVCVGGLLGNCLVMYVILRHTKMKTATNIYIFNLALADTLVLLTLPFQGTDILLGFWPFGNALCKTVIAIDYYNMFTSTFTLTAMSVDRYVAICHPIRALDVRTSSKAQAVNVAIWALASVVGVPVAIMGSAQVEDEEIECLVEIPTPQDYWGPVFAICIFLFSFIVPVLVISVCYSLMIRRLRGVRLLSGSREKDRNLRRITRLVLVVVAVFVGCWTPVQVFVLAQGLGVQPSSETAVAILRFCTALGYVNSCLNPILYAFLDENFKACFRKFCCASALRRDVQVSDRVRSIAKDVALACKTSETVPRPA
UniProt P35372, whole entry: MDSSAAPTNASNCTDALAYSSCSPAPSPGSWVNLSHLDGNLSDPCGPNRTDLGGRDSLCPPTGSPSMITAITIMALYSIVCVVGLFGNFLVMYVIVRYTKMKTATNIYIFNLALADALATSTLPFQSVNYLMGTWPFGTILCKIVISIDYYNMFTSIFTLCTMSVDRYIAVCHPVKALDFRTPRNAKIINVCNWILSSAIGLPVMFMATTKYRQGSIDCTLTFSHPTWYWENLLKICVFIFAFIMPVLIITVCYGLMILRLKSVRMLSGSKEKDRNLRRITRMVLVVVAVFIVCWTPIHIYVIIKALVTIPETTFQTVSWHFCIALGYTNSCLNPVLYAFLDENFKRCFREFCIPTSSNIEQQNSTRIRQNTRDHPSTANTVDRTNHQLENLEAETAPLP

Experiments:
ORL1 receptor = ORL1 receptor (Homo sapiens, UniProt P41146); experiment: ORL1 receptor binding assay with 3H-nociceptin/orphanin FQ, membranes of recombinant CHO-ORL1 cells; conditions: read-out: ORL1 Ki, 3H-nociceptin/orphanin FQ 0.5 nM, tested form: citrate
human μ opiate receptor = human μ opiate receptor (Homo sapiens, UniProt P35372); experiment: μ opiate receptor binding assay, membrane preparation of CHO-K1 cells, [3H]-naloxone (or DAMGO) displacement; conditions: read-out: μ Ki (DA); (DA): measured using DAMGO instead of naloxone; tested form: citrate

CN(C)C1(c2ccccc2)CCC(CNC(=O)N2CC=C(c3c[nH]c4ccc(F)cc34)CC2)CC1 (single isomer, unassigned) [Example 43]
Ki (ORL1 receptor): 0.16 µM
Ki (human μ opiate receptor): 0.015 µM

CN(C)C1(c2ccccc2)CCC(CNC(=O)N2CC=C(c3c[nH]c4ccc(F)cc34)CC2)CC1 (single isomer, unassigned) [Example 44]
Ki (ORL1 receptor): 0.11 µM
Ki (human μ opiate receptor): 0.0057 µM

The match of structure and compound is tentative.
